From PubChem BioAssay AID2685 (National Center for Advancing Translational Sciences (NCATS), 2010)
This is one part of the list. These are further read-outs of the screen, such as a control signal, another cell line or another target. No call is given for them. Compounds called inactive in the main read-out are mostly missing here. Potencies come from curve fits of mixed quality, noted in brackets.

Assay: qHTS Assay for Lipid Storage Modulators in Drosophila S3 Cells;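 for cell number change: cells counted by Cell Tracker Red CMTPX staining in the red channel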
Details: BODIPY lipid droplet fluorescence, 18-24 h; for cell number change: measured here: cell count max response, cells fed with added oleic acid
In short: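 Drosophila S3 cells got compounds at several concentrations plus oleic acid (400 uM solution). Laser-scanning cytometry with 488 nm excitation read lipid droplets at 500-530 nm and cells at 575-640 nm. Percent activity was relative to 20 uM Triacsin C.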

[1] = measured here: cell number channel AC50, cells fed with added oleic acid
[2] = measured here: lipid fluorescence (Fed channel) AC50, cells fed with added oleic acid

Structure (SMILES)	cell number change	AC50 [1]	AC50 [2]
Cc1nn(CCC(=O)O)c(C)c1C	-33.9%	0.116 µM [falling, full curve]	25.9 µM [falling, partial curve]
Cc1ccccc1C(=O)c1cccn1CC(=O)NC(C)c1ccccc1 (centres undefined)	-37.4%	–	–
O=C(CSc1nnc(-c2ccncc2)o1)Nc1ccc(F)c(F)c1	-13.9%	–	0.731 µM [falling, full curve, poor fit]
COc1cnc(-c2ccccn2)nc1Sc1ccccc1	–	–	0.00411 µM [rising, full curve, poor fit]
CSc1cccc(NC(=O)/C=C/c2ccc(Cl)cc2)c1	-26.8%	–	25.9 µM [falling, partial curve]
COc1ccc(C(=O)CSc2nnc(-c3cccs3)n2-c2ccccc2)cc1	–	–	0.092 µM [rising, full curve, poor fit]
O=C(Nc1ccccc1Br)C1CCN(C(=O)Cc2ccccc2)CC1	1.76%	–	–
Cc1ccc(NC(=O)c2ccco2)c([N+](=O)[O-])c1	11.8%	–	–
O=C(NC(=S)Nc1cccnc1Cl)c1ccc(F)cc1	-11.1%	–	25.9 µM [rising, single point]
Cc1nc(N)nc(Cl)c1Cc1ccc(Cl)cc1	56.6%	0.58 µM [rising, full curve, poor fit]	–
O=[N+]([O-])c1cc(S(=O)(=O)C(F)(F)F)ccc1NCC1CCCO1 (centres undefined)	-5.71%	–	6.51 µM [rising, single point]
Cc1ccccc1C(=O)N/N=C/c1ccc(OCC(=O)N2CCCCC2)cc1	14%	–	6.51 µM [falling, single point]
CCOc1ccc(-c2nnn(CC(=O)Nc3cccc(OC)c3)n2)cc1OCC	–	–	6.51 µM [rising, single point]
O=C(C1CCCN(S(=O)(=O)c2cccs2)C1)N1CCC(N2CCCCC2)CC1 (centres undefined)	-24.3%	–	16.4 µM [falling, partial curve, poor fit]
C#C[C@]1(OC(C)=O)CCC2C3CCC4=CC(=O)CC[C@@H]4C3CC[C@@]21C (some centres undefined)	-29.7%	–	23.1 µM [falling, partial curve, poor fit]
COc1ccccc1NC(=O)c1ccc(Cl)c(S(=O)(=O)N2CCCCC2)c1	35.3%	11.6 µM [rising, partial curve]	–
O=C(Cc1ccc(Cl)cc1)NNC(=O)c1cnccn1	40.9%	29.1 µM [rising, single point]	0.00461 µM [falling, full curve, poor fit]
N#CC1=C(N)Oc2n[nH]c(-c3ccccn3)c2C1c1c(F)cccc1Cl (centres undefined)	57.3%	0.92 µM [rising, full curve]	1.16 µM [rising, full curve]
Cc1nc2ccc(NC(=O)CCS(=O)(=O)c3ccc(Cl)cc3)cc2s1	8.1%	–	–
Cc1cccc(-c2nnc3n2N=C(c2ccc(Br)cc2)CS3)c1	–	–	0.517 µM [rising, full curve]
NS(=O)(=O)c1ccc(CCNC(=O)c2ccc(=O)[nH]c2)cc1	15.1%	–	–

Structure (SMILES)	cell number change	AC50 [1]	AC50 [2]
Cc1cc(OCc2cc(C(=O)N(C)C3CCOC3)no2)cc(C)c1Cl (centres undefined)	-24.1%	–	–
O=C(NCc1ccc(F)cc1)c1ccc(N2CCc3ccccc32)c([N+](=O)[O-])c1	-37.2%	29.1 µM [falling, single point]	29.1 µM [falling, single point]
CCOC(=O)C1CCN(C(=O)CC(C)c2ccccc2)CC1 (centres undefined)	-7.21%	–	18.4 µM [falling, partial curve, poor fit]
CC(=O)NC(CC(=O)NC1CCCc2ccccc21)c1ccccc1 (centres undefined)	5.24%	–	–
COc1cc(O)c2c(=O)c(-c3ccc(O[C@@H]4O[C@H](CO)[C@@H](O)[C@H](O)[C@H]4O)cc3)coc2c1	-26.1%	–	29.1 µM [falling, single point]
CC1=C(C(N)=O)C(c2ccccc2F)NC(=O)N1 (centres undefined)	-10.8%	–	–
COc1cc(-c2nn3c(-c4cccnc4)nnc3s2)cc(OC)c1OC	7.39%	–	–
O=C1c2[nH]nc(-c3ccccc3O)c2C(c2ccc(F)cc2)N1CC1CCCO1 (centres undefined)	-44.6%	32.6 µM [falling, single point]	–
Cc1ccsc1C(=O)c1sccc1C	-9.73%	–	0.116 µM [falling, full curve, poor fit]
CC(NCC(O)COCc1cccs1)C1CC2CCC1C2 (centres undefined)	-4.14%	0.092 µM [rising, full curve, poor fit]	–
Cc1sc2ncnc(N3CCCC(C)C3)c2c1C (centres undefined)	6.89%	–	–
COc1ccccc1N1C(=S)N=C(Nc2c(C)cccc2C)C12CCCC2	1.01%	–	1.84 µM [rising, full curve, poor fit]
CC(=O)Nc1cccc(C2=CC(c3ccco3)n3ncnc3N2)c1 (centres undefined)	-27.7%	1.46 µM [rising, partial curve]	–
Cn1cc(S(=O)(=O)N2CCCC2)cc1C(=O)NCc1ccc(F)cc1	7.49%	–	16.4 µM [rising, partial curve]
CC1(C)CC(OC(=O)c2ccccc2)CC(C)(C)N1	-19%	0.092 µM [falling, full curve, poor fit]	4.11 µM [falling, full curve]
COc1ccc(NC(=O)NCCCN2CCN(c3cc(C)ccc3C)CC2)cc1	32.3%	11.6 µM [rising, single point]	0.206 µM [falling, full curve, poor fit]
Cc1cc(Cc2cc(C)c(N)cc2C)c(C)cc1N	109%	0.146 µM [rising, full curve]	0.146 µM [rising, full curve]
CC(C)CCSc1nc2[nH]ncc2c(=O)[nH]1	-53.1%	0.13 µM [falling, full curve]	23.1 µM [falling, single point]
Cc1cc(C)c(S(=O)(=O)Nn2cnnc2)c(C)c1	-43.3%	8.2 µM [falling, partial curve]	16.4 µM [falling, single point]
COC(=O)c1cc(Br)ccc1-c1ccc(/C=N/n2nnnc2N)o1	–	2.91 µM [rising, partial curve]	6.51 µM [rising, partial curve]
COc1cc2[nH]c(=O)n(CCC(=O)N3CCN(Cc4ccccc4)CC3)c(=O)c2cc1OC	83.4%	25.9 µM [rising, single point]	29.1 µM [rising, single point]

Single entries from the list:
Under cell number change, `CC(=O)NC(CC(=O)NC1CCCc2ccccc21)c1ccccc1` (centres undefined) shows 5.24%
Under cell number change, `O=C(NCc1ccc(F)cc1)c1ccc(N2CCc3ccccc32)c([N+](=O)[O-])c1` shows -37.2%
Under cell number change, `COc1ccccc1N1C(=S)N=C(Nc2c(C)cccc2C)C12CCCC2` shows 1.01%

(list continues)

Structure (SMILES)	cell number change	AC50 [1]	AC50 [2]
COc1ccc(NC(=O)c2[nH]c(C)c(C(C)=O)c2C)cc1S(=O)(=O)Nc1ccc(Br)cc1	-27.9%	–	16.4 µM [falling, single point]
O=C(O)Cc1sc(NCCc2ccccc2)nc1-c1ccc(F)cc1	16%	–	–
CCOC(=O)C1=C(C)C(c2ccccc2)NC(=S)N1 (centres undefined)	-6.13%	1.3 µM [rising, full curve]	2.31 µM [rising, partial curve]
CC(=O)N/C(N)=N/c1nc2cc([N+](=O)[O-])ccc2o1	30.6%	6.51 µM [rising, full curve, poor fit]	–
O=C(NCC1CCCO1)c1ccc2c(c1)N(Cc1ccc(F)cc1)CCS2 (centres undefined)	-4.89%	–	29.1 µM [falling, single point]
CCC(C)c1ccccc1OCCCN(C)Cc1ccccc1 (centres undefined)	-17.3%	–	18.4 µM [falling, single point]
CCC1CCCCN1CCCNC(=O)c1ccc(N2CCOCC2)c(NS(=O)(=O)c2ccc(OC)cc2)c1 (centres undefined)	18.6%	–	0.116 µM [rising, full curve, poor fit]
N#Cc1nc(-c2ccco2)oc1NCCCN1CCOCC1	3.9%	–	0.58 µM [falling, partial curve]
Cn1ncc2c(Nc3ccccc3Cl)nc(Nc3ccccc3Cl)nc21	-31.7%	13 µM [falling, single point]	18.4 µM [falling, single point]
Cc1ccc(C)c(S(=O)(=O)N2CCCC2CNC(=O)C(=O)NC2CCCCCC2)c1 (centres undefined)	-33.2%	14.6 µM [falling, partial curve]	6.51 µM [falling, single point]
CCOC(=O)N1CCN(C(=O)c2ccc(OC)c(OC)c2)CC1	-4.29%	–	6.51 µM [falling, partial curve, poor fit]
CCOC(=O)c1[nH]ncc1CN1CCC(Cc2ccccc2)(C(=O)OCC)CC1	9.94%	–	–
O=C(CCc1nc(-c2ccccc2)no1)NCc1cccnc1	27.1%	–	–
CCNC(=O)CC1C(=O)N(c2ccccc2)C(=O)N1Cc1ccc(OC)cc1 (centres undefined)	1.84%	–	18.4 µM [falling, partial curve]
Cc1ccc2sc(NC(=O)c3cccc(N4C(=O)CCC4=O)c3)nc2c1C	-30.3%	2.59 µM [falling, partial curve, poor fit]	–
COc1ccccc1NC(=O)c1c(N=Cc2cccc([N+](=O)[O-])c2)cnn1C	18.2%	–	0.82 µM [rising, full curve, poor fit]
CCCc1cc(=O)oc2c(C)c(OC(C)C(=O)NCCN3CCOCC3)ccc12 (centres undefined)	35.3%	5.17 µM [rising, full curve, poor fit]	5.17 µM [rising, single point]
CCOC(=O)c1cnn(-c2nc(SC)nc3sc4c(c23)CCC4)c1N	4.08%	–	4.11 µM [rising, full curve]
CCOc1ccccc1NC(=O)c1ccc(OCC)c([N+](=O)[O-])c1	20.3%	–	23.1 µM [rising, single point]
